Assay results taken from patent US20240358735A1, “THERAPEUTIC COMPOSITIONS AND RELATED METHODS” (BOYCE THOMPSON INSTITUTE FOR PLANT RESEARCH, INC., priority 2021, published 2024).

System: Cel-cest-1.2 mutants
Assay: Comparative metabolomics (HPLC-HRMS) of Cel-cest-1.2 mutants versus wildtype C. elegans (N2)
Conditions: abundance of the metabolite in Cel-cest-1.2 mutants compared to C. elegans wildtype (N2)

| SMILES | Cel-cest-1.2 fold over WT (N2), average of 4 repeats |
| --- | --- |
| O=C(O[C@@H]1[C@@H](OP(=O)(O)O)[C@H](O)[C@@H](CO)O[C@H]1n1ccc2ccccc21)c1ccccn1 [iglu#601] | 0.001845 |
| CCCC(=O)OC[C@H]1O[C@@H](OC(=O)c2ccccc2N)[C@H](OC(=O)Cc2ccccc2)[C@@H](OP(=O)(O)O)[C@@H]1O [angl#22] | 0.004657 |
| CC(C)CC(=O)OC[C@H]1O[C@@H](n2ccc3ccccc32)[C@H](OC(=O)c2cccnc2)[C@@H](OP(=O)(O)O)[C@@H]1O [iglu#34] | 0.003863 |
| CC(C)CC(=O)OC[C@H]1O[C@@H](CC(=O)c2ccccc2)[C@H](OC(=O)CC(C)C)[C@@H](OP(=O)(O)O)[C@@H]1O [bzglu#8] | 0.0006248 |
| Nc1ccccc1C(=O)O[C@@H]1[C@@H](OP(=O)(O)O)[C@H](O)[C@@H](CO)O[C@H]1n1ccc2ccccc21 [iglu#401, (2R,3R,4S,5R,6R)-5-hydroxy-6-(hydroxymethyl)-2-(1H-indol-1-yl)-4-(phosphonooxy)tetrahydro-2H-pyran-3-yl 2-aminobenzoate] | 0.0009932 |
| NCCc1ccc(O[C@@H]2O[C@H](COC(=O)c3ccc[nH]3)[C@@H](O)[C@H](OP(=O)(O)O)[C@H]2OC(=O)c2ccccc2N)cc1 [tyglu#34] | 0.0003271 |
| O=C(/C=C/c1c[nH]cn1)OC[C@H]1O[C@@H](n2ccc3ccccc32)[C@H](OC(=O)c2ccccc2)[C@@H](OP(=O)(O)O)[C@@H]1O [iglu#70] | 0.003904 |
| Nc1ccccc1C(=O)O[C@@H]1[C@@H](OP(=O)(O)O)[C@H](O)[C@@H](COC(=O)/C=C/c2c[nH]cn2)O[C@H]1n1ccc2ccccc21 [iglu#82] | 0.001108 |
| Nc1ccccc1C(=O)O[C@@H]1O[C@H](CO)[C@@H](O)[C@H](OP(=O)(O)O)[C@H]1OC(=O)c1ccccc1 [angl#161] | 0.00178 |
| CCCCCCCCCCCC(=O)OC[C@H]1O[C@@H](OC(=O)c2ccccc2N)[C@H](OC(=O)c2ccccc2N)[C@@H](OP(=O)(O)O)[C@@H]1O [angl#40] | 0.004743 |
| CCC(O)C(=O)OC[C@H]1O[C@@H](n2ccc3ccccc32)[C@H](OC(=O)c2ccccc2N)[C@@H](OP(=O)(O)O)[C@@H]1O (some centres unmarked) [iglu#47] | 0.0007468 |
| C/C=C(\C)C(=O)OC[C@H]1O[C@@H](n2ccc3ccccc32)[C@H](OC(=O)c2ccc[nH]2)[C@@H](OP(=O)(O)O)[C@@H]1O [iglu#22] | 0.0001619 |
| Cn1c(N)nc2c(ncn2C2OC(COC(=O)c3ccccc3)C(O)C(OP(=O)(O)O)C2OC(=O)c2ccccc2)c1=O (centres unmarked) [mgglu#4] | 0.004434 |
| CCC(=O)OC1C(OP(=O)(O)O)C(O)C(COC(=O)c2cccnc2)OC1n1ccc2ccccc21 (centres unmarked) [iglu#23] | 0.001825 |
| NCC(O)c1ccc(O[C@@H]2O[C@H](COC(=O)c3ccc[nH]3)[C@@H](O)[C@H](OP(=O)(O)O)[C@H]2OC(=O)c2ccccc2)cc1 (some centres unmarked) [oglu#7] | 0.001472 |
| CC(C)CC(=O)OC1C(OC(=O)c2ccccc2N)OC(CO)C(O)C1OP(=O)(O)O (centres unmarked) [angl#46] | 0.01675 |
| CCC/C=C/C(=O)OCC1OC(OC(=O)c2cccnc2)C(OC(=O)c2cccnc2)C(OP(=O)(O)O)C1O (centres unmarked) [nglu#9] | 0.001451 |
| Nc1ccccc1C(=O)OCC1OC(n2ccc3ccccc32)C(OC(=O)c2ccccc2)C(OP(=O)(O)O)C1O (centres unmarked) [iglu#68] | 0.001092 |
| NCCc1ccc(O[C@@H]2O[C@H](COC(=O)c3ccccc3N)[C@@H](O)[C@H](OP(=O)(O)O)[C@H]2OC(=O)c2ccccn2)cc1 [tyglu#6] | 0.000209 |
| Nc1ccccc1C(=O)OC[C@H]1O[C@@H](OC(=O)c2ccccc2N)[C@H](OC(=O)c2ccccc2N)[C@@H](OP(=O)(O)O)[C@@H]1O [angl#36] | 0.0003258 |
| C/C=C(\C)C(=O)O[C@H]1[C@H](Oc2ccc(CCN)cc2)O[C@H](COC(=O)c2ccccc2N)[C@@H](O)[C@@H]1OP(=O)(O)O [tyglu#8] | 0.0001168 |
| CCC/C=C/C=C\C=C\C(=O)OC[C@H]1O[C@@H](Oc2ccc(CCN)cc2)[C@H](OC(=O)c2ccccc2N)[C@@H](OP(=O)(O)O)[C@@H]1O [tyglu#50] | 0.008897 |
| Nc1ccccc1C(=O)O[C@@H]1[C@@H](CP(=O)(O)O)[C@H](O)[C@@H](COC(=O)c2ccc(O)cc2)O[C@H]1n1ccc2ccccc21 [iglu#76] | 0.00023 |

| SMILES | Cel-cest-1.2 fold over WT (N2), average of 4 repeats |
| --- | --- |
| Cn1c(N)nc2c(ncn2C2OC(COC(=O)c3ccccc3)C(O)C(OP(=O)(O)O)C2OC(=O)c2ccccc2)c1=O (centres unmarked) [mgglu#6] | 0.000397 |
| CC(C)CC(=O)OCC1OC(OC(=O)c2cccnc2)C(OC(=O)Cc2ccccc2)C(OP(=O)(O)O)C1O (centres unmarked) [nglu#10] | 0.002083 |
| O=C(OC[C@H]1O[C@@H](n2ccc3ccccc32)[C@H](OC(=O)c2ccccn2)[C@@H](OP(=O)(O)O)[C@@H]1O)c1ccccc1 [iglu#53] | 0.002592 |
| C[C@H](CC/C=C/C(=O)OC[C@H]1O[C@@H](n2ccc3ccccc32)[C@H](OC(=O)c2ccccc2)[C@@H](OP(=O)(O)O)[C@@H]1O)O[C@@H]1O[C@@H](C)[C@H](O)C[C@H]1O [iglas#701] | 0.0003478 |
| Nc1ccccc1C(=O)OCC1OC(n2ccc3ccccc32)C(OC(=O)Cc2ccccc2)C(OP(=O)(O)O)C1O (centres unmarked) [iglu#72] | 0.0009403 |
| NCC(O)c1ccc(C[C@@H]2O[C@H](COC(=O)c3cccnc3)[C@@H](O)[C@H](OP(=O)(O)O)[C@H]2OC(=O)c2ccccc2N)cc1 (some centres unmarked) [oglu#16] | 0.0007457 |
| Nc1ccccc1C(=O)O[C@@H]1O[C@H](COC(=O)C(N)Cc2ccccc2)[C@@H](O)[C@H](OP(=O)(O)O)[C@H]1OC(=O)c1ccccc1 (some centres unmarked) [angl#38] | 0.000919 |
| NCC(O)c1ccc(C[C@@H]2O[C@H](COC(=O)c3ccc[nH]3)[C@@H](O)[C@H](OP(=O)(O)O)[C@H]2OC(=O)c2ccccc2N)cc1 (some centres unmarked) [oglu#1401] | 0.01959 |
| Nc1ccccc1C(=O)OCC1OC(n2ccc3ccccc32)C(OC(=O)c2ccccc2)C(CP(=O)(O)O)C1O (centres unmarked) [iglu#90] | 0.001939 |
| CC(C)CC(=O)O[C@H]1[C@H](Oc2ccc(CCN)cc2)O[C@H](COC(=O)c2ccccc2N)[C@@H](O)[C@@H]1OP(=O)(O)O [tyglu#14] | 0.0004346 |
| NCC(O)c1ccc(O[C@@H]2O[C@H](COC(=O)c3ccc[nH]3)[C@@H](O)[C@H](OP(=O)(O)O)[C@H]2OC(=O)c2ccccc2)cc1 (some centres unmarked) [oglu#9] | 0.0002913 |
| Nc1ccccc1C(=O)C[C@@H]1O[C@H](COC(=O)c2ccc[nH]2)[C@@H](O)[C@H](OP(=O)(O)O)[C@H]1OC(=O)c1ccccc1N [angl#51] | 0.005817 |
| CCC(=O)O[C@H]1[C@H](OC(=O)c2ccccc2N)O[C@H](CO)[C@@H](O)[C@@H]1OP(=O)(O)O [angl#12] | 0.004249 |
| NCCc1ccc(OC2OC(COC(=O)c3ccc[nH]3)C(O)C(OP(=O)(O)O)C2OC(=O)c2ccc[nH]2)cc1 (centres unmarked) [tyglu#24] | 0.01672 |
| O=C(OC[C@H]1O[C@@H](n2ccc3ccccc32)[C@H](OC(=O)c2cccnc2)[C@@H](OP(=O)(O)O)[C@@H]1O)c1cccnc1 [iglu#56] | 0.009127 |
| C[C@H](CCCCC(=O)OC[C@H]1O[C@@H](n2ccc3ccccc32)[C@H](OC(=O)c2ccccc2)[C@@H](OP(=O)(O)O)[C@@H]1O)O[C@@H]1O[C@@H](C)[C@H](O)C[C@H]1O [iglas#702] | 0.0003696 |
| NCCc1ccc(O[C@@H]2O[C@H](COC(=O)c3ccccc3N)[C@@H](O)[C@H](OP(=O)(O)O)[C@H]2OC(=O)Cc2ccccc2)cc1 [tyglu#12] | 0.008818 |
| CCC(=O)OC1C(OP(=O)(O)O)C(O)C(COC(=O)c2cccnc2)OC1n1ccc2ccccc21 (centres unmarked) [iglu#21] | 0.0136 |
| NCCc1ccc(O[C@@H]2O[C@H](COC(=O)c3cccnc3)[C@@H](O)[C@H](OP(=O)(O)O)[C@H]2OC(=O)c2ccccc2)cc1 [tyglu#28] | 0.0002055 |
| C/C=C(\C)C(=O)OC1C(Oc2ccc(C(O)CN)cc2)OC(COC(=O)c2ccc[nH]2)C(O)C1OP(=O)(O)O (centres unmarked) [oglu#601] | 0.002277 |
| C/C=C(\C)C(=O)OC[C@H]1O[C@@H](CC(=O)c2ccccc2N)[C@H](OC(=O)c2ccccc2)[C@@H](O)[C@@H]1O [angl#42] | 0.00007037 |
| Nc1ccccc1C(=O)O[C@@H]1O[C@H](COC(=O)c2cccnc2)[C@@H](O)[C@H](OP(=O)(O)O)[C@H]1OC(=O)c1ccccc1 [angl#27] | 0.0002314 |

Same assay, conditions: relative to wildtype C. elegans

| SMILES | production in the Cel-cest-1.2 mutant (in words) |
| --- | --- |
| OC[C@H]1O[C@@H](n2ccc3ccccc32)[C@H](O)[C@@H](O)[C@@H]1O [iglu #1] | not abolished |
| C[C@H](CCCCC(=O)O[C@@H]1[C@@H](OP(=O)(O)O)[C@H](O)[C@@H](CO)O[C@H]1n1c(=O)[nH]c(=O)c2[nH]c(=O)[nH]c21)O[C@@H]1O[C@@H](C)[C@H](O)C[C@H]1O [uglas #11] | not affected |
